# Results from the supplement of paper PMC6411743.
# ± gives the standard deviation of the averaged measurements. The entries are a selection whose mix differs from that of the whole data set.
# Legend:
# Assay in all cases: NP40-soluble protein abundance relative to vehicle (solubility fold change) (ratio); higher = more soluble protein in presence of AMP-PNP
# UniProt Q5VST6 = molecular target: T1, UniProt Q5VST6
# T1 sequence (whole entry): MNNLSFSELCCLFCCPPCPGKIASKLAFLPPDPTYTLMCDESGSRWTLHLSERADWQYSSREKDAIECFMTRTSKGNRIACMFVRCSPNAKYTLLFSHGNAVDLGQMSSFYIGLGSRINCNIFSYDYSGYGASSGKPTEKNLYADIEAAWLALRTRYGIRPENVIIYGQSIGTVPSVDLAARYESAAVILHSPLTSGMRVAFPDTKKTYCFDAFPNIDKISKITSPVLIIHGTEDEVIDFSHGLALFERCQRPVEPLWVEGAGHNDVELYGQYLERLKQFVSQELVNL
# Outline: (§1)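 Across three independent experiments, values are fold changes against the detergent-processed vehicle for each replicate, based on vsn-normalised intensities. The samples were Jurkat crude lysate treated with eight concentrations (0.1 to 10 mM) for 10 min at room temperature and then 3 min at 37 °C. Lysate was solubilised with 0.8% NP40 and benzonase, ultracentrifuged, and the supernatant analysed by TMT-labelled LC-MS/MS.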
# UniProt Q5W0B1 = molecular target: T2, UniProt Q5W0B1
# T2 sequence (whole entry): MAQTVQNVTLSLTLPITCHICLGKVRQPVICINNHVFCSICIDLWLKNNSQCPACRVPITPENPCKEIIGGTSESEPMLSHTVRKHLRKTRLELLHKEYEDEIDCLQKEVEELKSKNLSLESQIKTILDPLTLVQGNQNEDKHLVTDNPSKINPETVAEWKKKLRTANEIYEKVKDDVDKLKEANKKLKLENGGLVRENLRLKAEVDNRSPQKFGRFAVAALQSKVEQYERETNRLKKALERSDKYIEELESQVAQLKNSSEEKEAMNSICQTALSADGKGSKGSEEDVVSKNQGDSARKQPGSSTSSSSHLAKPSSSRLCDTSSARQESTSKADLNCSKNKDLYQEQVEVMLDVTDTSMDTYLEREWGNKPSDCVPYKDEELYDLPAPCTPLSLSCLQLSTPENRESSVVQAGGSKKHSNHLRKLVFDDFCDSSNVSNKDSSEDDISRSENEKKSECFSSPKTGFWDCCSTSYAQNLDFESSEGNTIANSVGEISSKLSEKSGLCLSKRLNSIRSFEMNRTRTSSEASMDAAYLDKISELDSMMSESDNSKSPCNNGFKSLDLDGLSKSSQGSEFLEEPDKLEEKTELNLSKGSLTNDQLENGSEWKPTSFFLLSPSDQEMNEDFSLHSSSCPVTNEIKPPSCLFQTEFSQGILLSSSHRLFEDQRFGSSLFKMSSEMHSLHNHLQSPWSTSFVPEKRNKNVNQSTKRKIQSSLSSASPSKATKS
# Outline: as §1
# UniProt Q68CQ4 = molecular target: T3, UniProt Q68CQ4
# T3 sequence (whole entry): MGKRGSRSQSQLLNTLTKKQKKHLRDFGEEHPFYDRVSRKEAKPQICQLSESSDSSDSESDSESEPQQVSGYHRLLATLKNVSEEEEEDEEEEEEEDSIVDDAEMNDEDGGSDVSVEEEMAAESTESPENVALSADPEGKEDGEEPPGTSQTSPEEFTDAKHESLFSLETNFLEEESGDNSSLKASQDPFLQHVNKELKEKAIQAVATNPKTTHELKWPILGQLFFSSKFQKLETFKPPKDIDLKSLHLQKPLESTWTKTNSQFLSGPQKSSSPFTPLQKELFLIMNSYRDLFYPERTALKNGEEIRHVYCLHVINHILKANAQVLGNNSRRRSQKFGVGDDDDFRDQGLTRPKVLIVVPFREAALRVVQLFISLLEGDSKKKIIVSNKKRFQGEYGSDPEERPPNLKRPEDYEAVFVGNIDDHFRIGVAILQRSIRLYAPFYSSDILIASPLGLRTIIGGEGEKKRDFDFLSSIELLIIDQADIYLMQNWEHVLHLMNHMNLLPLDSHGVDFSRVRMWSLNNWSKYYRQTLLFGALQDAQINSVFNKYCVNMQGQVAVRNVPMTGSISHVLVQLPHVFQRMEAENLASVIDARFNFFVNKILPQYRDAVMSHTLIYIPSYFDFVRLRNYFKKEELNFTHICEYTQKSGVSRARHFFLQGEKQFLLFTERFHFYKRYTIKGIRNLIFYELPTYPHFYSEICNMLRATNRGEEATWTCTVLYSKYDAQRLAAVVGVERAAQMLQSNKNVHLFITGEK
# Outline: as §1
# UniProt Q68CZ6 = molecular target: T4, UniProt Q68CZ6
# T4 sequence (whole entry): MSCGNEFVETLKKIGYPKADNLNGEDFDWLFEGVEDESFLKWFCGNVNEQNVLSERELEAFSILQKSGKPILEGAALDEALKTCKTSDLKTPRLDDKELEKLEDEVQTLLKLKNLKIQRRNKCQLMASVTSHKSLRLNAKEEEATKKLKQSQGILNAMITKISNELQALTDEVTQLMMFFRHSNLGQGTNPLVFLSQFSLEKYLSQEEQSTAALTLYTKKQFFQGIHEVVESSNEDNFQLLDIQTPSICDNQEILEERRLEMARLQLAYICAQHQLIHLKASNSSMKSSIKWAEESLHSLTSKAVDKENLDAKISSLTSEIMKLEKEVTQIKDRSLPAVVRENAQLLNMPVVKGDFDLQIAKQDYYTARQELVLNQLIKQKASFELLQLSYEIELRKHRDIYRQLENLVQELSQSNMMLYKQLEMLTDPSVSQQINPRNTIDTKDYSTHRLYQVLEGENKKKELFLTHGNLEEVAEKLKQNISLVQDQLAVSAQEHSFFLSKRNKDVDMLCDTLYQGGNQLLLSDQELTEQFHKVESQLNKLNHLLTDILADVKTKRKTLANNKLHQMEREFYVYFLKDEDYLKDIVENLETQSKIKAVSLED
# Outline: as §1
# [1] = molecular target: T5, UniProt Q68D10 and related entries
# T5 sequence (whole entry): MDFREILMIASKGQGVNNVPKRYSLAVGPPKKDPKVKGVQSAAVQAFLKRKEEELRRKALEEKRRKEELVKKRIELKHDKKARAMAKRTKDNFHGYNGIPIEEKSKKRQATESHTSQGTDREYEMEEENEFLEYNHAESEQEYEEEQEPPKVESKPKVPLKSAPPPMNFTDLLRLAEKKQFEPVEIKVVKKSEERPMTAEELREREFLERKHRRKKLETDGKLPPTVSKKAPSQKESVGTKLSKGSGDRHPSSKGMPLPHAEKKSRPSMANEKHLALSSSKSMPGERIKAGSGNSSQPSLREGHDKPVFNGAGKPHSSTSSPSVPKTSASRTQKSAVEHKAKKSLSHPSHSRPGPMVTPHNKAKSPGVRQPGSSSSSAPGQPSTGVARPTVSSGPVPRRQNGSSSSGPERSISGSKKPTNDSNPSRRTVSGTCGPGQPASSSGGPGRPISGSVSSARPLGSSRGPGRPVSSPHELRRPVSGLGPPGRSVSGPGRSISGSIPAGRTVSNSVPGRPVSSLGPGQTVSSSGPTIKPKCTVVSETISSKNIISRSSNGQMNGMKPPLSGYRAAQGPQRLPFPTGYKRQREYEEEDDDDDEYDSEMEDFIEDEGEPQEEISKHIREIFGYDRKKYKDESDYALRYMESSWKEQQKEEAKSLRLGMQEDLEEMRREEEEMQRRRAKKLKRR
# Outline: as §1
compound,measurement,setting,value
Nc1ncnc2c1ncn2[C@@H]1O[C@H](COP(=O)(O)OP(=O)(O)NP(=O)(O)O)[C@@H](O)[C@H]1O [adenylyl imidodiphosphate],NP40-soluble protein abundance,UniProt Q5VST6; concentration: 1mM,1.05 ± 0.094
same,NP40-soluble protein abundance,UniProt Q5VST6; concentration: 2mM,1 ± 0.1
same,NP40-soluble protein abundance,UniProt Q5VST6; concentration: 4mM,1.02 ± 0.095
same,NP40-soluble protein abundance,UniProt Q5VST6; concentration: 6mM,1.01 ± 0.078
same,NP40-soluble protein abundance,UniProt Q5VST6; concentration: 8mM,1.02 ± 0.071
same,NP40-soluble protein abundance,UniProt Q5VST6; concentration: 10mM,1.01 ± 0.14
same,NP40-soluble protein abundance,UniProt Q5W0B1; concentration: 1mM,1.01 ± 0.031
same,NP40-soluble protein abundance,UniProt Q5W0B1; concentration: 2mM,1.04 ± 0.014
same,NP40-soluble protein abundance,UniProt Q5W0B1; concentration: 4mM,1.03 ± 0.027
same,NP40-soluble protein abundance,UniProt Q5W0B1; concentration: 6mM,1 ± 0.031
same,NP40-soluble protein abundance,UniProt Q5W0B1; concentration: 8mM,0.967 ± 0.016
same,NP40-soluble protein abundance,UniProt Q5W0B1; concentration: 10mM,1.02 ± 0.057
same,NP40-soluble protein abundance,UniProt Q68CQ4; concentration: 1mM,1.013 ± 0.0022
same,NP40-soluble protein abundance,UniProt Q68CQ4; concentration: 2mM,1.16 ± 0.2
same,NP40-soluble protein abundance,UniProt Q68CQ4; concentration: 4mM,1.07 ± 0.046
same,NP40-soluble protein abundance,UniProt Q68CQ4; concentration: 6mM,1.06 ± 0.013
same,NP40-soluble protein abundance,UniProt Q68CQ4; concentration: 8mM,1.08 ± 0.012
same,NP40-soluble protein abundance,UniProt Q68CQ4; concentration: 10mM,1.08 ± 0.019
same,NP40-soluble protein abundance,UniProt Q68CZ6; concentration: 1mM,1.01 ± 0.045
same,NP40-soluble protein abundance,UniProt Q68CZ6; concentration: 2mM,1.01 ± 0.034
same,NP40-soluble protein abundance,UniProt Q68CZ6; concentration: 4mM,0.998 ± 0.042
same,NP40-soluble protein abundance,UniProt Q68CZ6; concentration: 6mM,0.9579 ± 0.007
same,NP40-soluble protein abundance,UniProt Q68CZ6; concentration: 8mM,0.954 ± 0.059
same,NP40-soluble protein abundance,UniProt Q68CZ6; concentration: 10mM,0.953 ± 0.012
same,NP40-soluble protein abundance,[1]; concentration: 1mM,1.042 ± 0.01
same,NP40-soluble protein abundance,[1]; concentration: 2mM,1.13 ± 0.075
same,NP40-soluble protein abundance,[1]; concentration: 4mM,1.13 ± 0.027
same,NP40-soluble protein abundance,[1]; concentration: 6mM,1.19 ± 0.041
same,NP40-soluble protein abundance,[1]; concentration: 8mM,1.24 ± 0.037
same,NP40-soluble protein abundance,[1]; concentration: 10mM,1.33 ± 0.07

# Given with tabs: part of the list above
compound	measurement	setting	value
Nc1ncnc2c1ncn2[C@@H]1O[C@H](COP(=O)(O)OP(=O)(O)NP(=O)(O)O)[C@@H](O)[C@H]1O [adenylyl imidodiphosphate]	NP40-soluble protein abundance	UniProt Q5W0B1; concentration: 6mM	1 ± 0.031
same	NP40-soluble protein abundance	UniProt Q5W0B1; concentration: 8mM	0.967 ± 0.016
same	NP40-soluble protein abundance	UniProt Q5W0B1; concentration: 10mM	1.02 ± 0.057
same	NP40-soluble protein abundance	UniProt Q68CQ4; concentration: 1mM	1.013 ± 0.0022
same	NP40-soluble protein abundance	UniProt Q68CQ4; concentration: 2mM	1.16 ± 0.2
same	NP40-soluble protein abundance	UniProt Q68CQ4; concentration: 4mM	1.07 ± 0.046
same	NP40-soluble protein abundance	UniProt Q68CQ4; concentration: 6mM	1.06 ± 0.013
